Experimental data taken from PMC9395636.
Results are given in words; binding and its absence hold for the method and conditions named. In cells and extracts the contact can be indirect. Some results given as binding are weak or reduced against the parent protein; the word gives no strength.

The chains behind the UniProt entries cited, without tags or fusion partners. Residues count along the entry.
UniProt Q8BWG9: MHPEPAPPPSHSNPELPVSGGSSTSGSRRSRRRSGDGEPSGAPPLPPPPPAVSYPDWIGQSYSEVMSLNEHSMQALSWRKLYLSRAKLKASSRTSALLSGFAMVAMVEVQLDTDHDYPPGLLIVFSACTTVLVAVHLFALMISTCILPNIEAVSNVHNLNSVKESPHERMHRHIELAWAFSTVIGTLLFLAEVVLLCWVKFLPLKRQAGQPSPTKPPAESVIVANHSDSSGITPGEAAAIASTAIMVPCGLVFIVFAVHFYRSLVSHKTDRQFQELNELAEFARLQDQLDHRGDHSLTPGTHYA
UniProt Q3UH93, residues 49-1925: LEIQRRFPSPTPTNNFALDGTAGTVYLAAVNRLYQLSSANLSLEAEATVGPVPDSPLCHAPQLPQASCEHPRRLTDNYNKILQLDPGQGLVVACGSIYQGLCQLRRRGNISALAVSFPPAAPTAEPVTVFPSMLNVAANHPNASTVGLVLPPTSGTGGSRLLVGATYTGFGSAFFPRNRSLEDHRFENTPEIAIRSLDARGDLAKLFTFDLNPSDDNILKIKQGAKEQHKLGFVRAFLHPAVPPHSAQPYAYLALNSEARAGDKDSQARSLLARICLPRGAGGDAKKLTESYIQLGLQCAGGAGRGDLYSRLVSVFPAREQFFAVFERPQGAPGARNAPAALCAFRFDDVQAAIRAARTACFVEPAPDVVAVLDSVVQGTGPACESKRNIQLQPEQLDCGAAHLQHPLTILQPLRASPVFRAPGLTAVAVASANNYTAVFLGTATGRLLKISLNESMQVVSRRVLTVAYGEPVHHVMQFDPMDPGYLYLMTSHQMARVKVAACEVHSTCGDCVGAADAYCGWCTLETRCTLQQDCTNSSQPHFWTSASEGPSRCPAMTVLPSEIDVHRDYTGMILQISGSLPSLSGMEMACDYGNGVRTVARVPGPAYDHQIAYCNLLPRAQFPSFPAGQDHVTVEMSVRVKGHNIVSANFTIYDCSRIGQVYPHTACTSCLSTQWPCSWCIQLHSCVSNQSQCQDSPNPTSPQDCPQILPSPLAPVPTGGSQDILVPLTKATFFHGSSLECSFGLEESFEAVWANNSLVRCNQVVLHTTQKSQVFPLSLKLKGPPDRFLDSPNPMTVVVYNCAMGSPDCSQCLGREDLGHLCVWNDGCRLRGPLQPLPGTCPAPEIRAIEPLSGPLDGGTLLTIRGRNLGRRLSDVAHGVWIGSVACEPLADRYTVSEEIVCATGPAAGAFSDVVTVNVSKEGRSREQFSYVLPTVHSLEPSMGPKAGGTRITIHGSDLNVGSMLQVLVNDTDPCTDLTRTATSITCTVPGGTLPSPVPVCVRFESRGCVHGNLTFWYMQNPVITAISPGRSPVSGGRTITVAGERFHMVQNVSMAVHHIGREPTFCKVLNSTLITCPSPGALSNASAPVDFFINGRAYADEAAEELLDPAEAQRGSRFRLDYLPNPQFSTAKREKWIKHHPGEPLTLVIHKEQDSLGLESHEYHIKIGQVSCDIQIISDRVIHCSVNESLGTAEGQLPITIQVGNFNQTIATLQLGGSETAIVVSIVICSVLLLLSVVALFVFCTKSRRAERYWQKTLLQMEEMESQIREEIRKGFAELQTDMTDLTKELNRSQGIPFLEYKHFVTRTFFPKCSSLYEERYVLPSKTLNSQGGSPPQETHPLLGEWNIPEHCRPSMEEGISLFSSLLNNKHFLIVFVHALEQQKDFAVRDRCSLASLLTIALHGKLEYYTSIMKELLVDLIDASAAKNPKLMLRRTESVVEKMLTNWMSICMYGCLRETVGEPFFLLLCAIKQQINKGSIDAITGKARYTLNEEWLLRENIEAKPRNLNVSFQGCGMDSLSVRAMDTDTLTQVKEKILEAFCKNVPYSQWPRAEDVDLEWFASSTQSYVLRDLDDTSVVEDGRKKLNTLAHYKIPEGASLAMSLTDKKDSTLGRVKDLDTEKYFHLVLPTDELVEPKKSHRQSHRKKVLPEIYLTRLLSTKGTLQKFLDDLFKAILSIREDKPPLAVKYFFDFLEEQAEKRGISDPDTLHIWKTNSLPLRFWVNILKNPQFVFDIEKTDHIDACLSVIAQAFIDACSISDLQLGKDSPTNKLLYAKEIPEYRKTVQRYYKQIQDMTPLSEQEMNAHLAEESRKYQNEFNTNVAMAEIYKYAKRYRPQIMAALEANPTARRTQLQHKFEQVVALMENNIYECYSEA

Target: ORAI1 (mouse (endogenous in primary EECs)) (UniProt Q8BWG9)
Experiment: co-IP; EEC lysates in IP lysis buffer (pH 7.4, 0.025 M Tris, 0.15 M NaCl, 0.001 M EDTA, 5% glycerol) incubated with anti-PLXND1, anti-ORAI1 or IgG overnight at 4°C; Western blot for PLXND1 and ORAI1

- binding: binds
Substance: PLXND1 (from UniProt Q3UH93 49-1925) (receptor)
